Test results published in US6518035B1, “Targeted methods of drug screening using co-culture methods” (Rosetta Inpharmatics, Inc., priority 1998, dated 2003).
Read-outs that look alike come from different tables or passages of the source.

Amino acid sequences for entries named in this document (tags omitted). A change or cut given only in a name is not applied to a line headed by its entry.
UniProt P10614: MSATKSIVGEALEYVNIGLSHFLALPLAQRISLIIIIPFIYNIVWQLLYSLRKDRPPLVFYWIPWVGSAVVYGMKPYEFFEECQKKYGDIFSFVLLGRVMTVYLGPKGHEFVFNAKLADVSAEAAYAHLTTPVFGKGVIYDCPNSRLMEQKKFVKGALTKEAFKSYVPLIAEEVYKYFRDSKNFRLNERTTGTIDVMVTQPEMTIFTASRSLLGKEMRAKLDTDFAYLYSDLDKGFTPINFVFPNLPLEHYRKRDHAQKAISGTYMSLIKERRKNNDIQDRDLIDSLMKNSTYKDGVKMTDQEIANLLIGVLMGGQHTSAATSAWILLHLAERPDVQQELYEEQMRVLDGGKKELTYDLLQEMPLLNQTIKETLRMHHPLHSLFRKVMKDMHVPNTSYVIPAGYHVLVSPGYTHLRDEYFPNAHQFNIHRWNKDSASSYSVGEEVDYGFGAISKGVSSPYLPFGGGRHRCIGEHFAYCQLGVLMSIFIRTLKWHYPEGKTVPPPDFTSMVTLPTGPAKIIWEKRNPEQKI

Target: Erg11p (Saccharomyces cerevisiae, UniProt P10614)
Conditions: 25 target and 25,000 decoy cells (1:1000), 225 μl, 30° C., up to ten days

Clc1ccc(CSC(Cn2ccnc2)c2ccc(Cl)cc2Cl)cc1 (centres unmarked) [sulconazole]
fluorescent signal of co-culture versus no-drug treatment (0.5 μg/ml drug plus 0.1% DMSO): significant positive signals
fluorescent signal of co-culture versus no-drug treatment (5 μg/ml drug plus 1% DMSO): too severe a growth inhibition to produce positive signals
